Our source for the survivor count and T/C values is PubChem BioAssay AID192 (DTP/NCI, 2004).

For this assay, the system named is BDF1 mice, B16 melanoma ip, median survival T/C. In words: NCI In Vivo Anticancer Drug Screen. Data for tumor model B16 Melanoma (intraperitoneal) in B6D2F1 (BDF1) mice. The settings on record: T/C endpoint: median survival time, higher T/C = longer survival. In short, it runs like this:
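The ratio T/C compares compound-treated mice with vehicle-treated controls, using survival or tumor size as the endpoint in a transplantable tumor model.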

Setting [1] is: dose: 4.0 mg/kg/injection, schedule: Q01DX009 (ip), vehicle: Klucel (hydroxypropylcellulose) (HPC).
Setting [2] is: dose: 400.0 mg/kg/injection, schedule: Q01DX009 (ip), vehicle: Klucel (hydroxypropylcellulose) (HPC).
The mark [3] stands for this setting: dose: 25.0 mg/kg/injection, schedule: Q01DX009 (ip), vehicle: Klucel (hydroxypropylcellulose) (HPC).
The mark [4] stands for this setting: dose: 200.0 mg/kg/injection, schedule: Q01DX009 (ip), vehicle: Klucel (hydroxypropylcellulose) (HPC).
Where [5] appears, read: dose: 200.0 mg/kg/injection, schedule: Q01DX009 (ip), vehicle: saline.
[6] abbreviates: dose: 400.0 mg/kg/injection, schedule: Q01DX009 (ip), vehicle: saline.
[7] abbreviates: dose: 100.0 mg/kg/injection, schedule: Q01DX009 (ip), vehicle: Klucel (hydroxypropylcellulose) (HPC).
The mark [8] stands for this setting: dose: 3.0 mg/kg/injection, schedule: Q01DX009 (ip), vehicle: saline with Tween-80.
Setting [9] is: dose: 12.5 mg/kg/injection, schedule: Q04DX003 (ip), vehicle: saline with Tween-80.
The mark [10] stands for this setting: dose: 25.0 mg/kg/injection, schedule: Q01DX009 (ip), vehicle: saline with Tween-80.
Where [11] appears, read: dose: 50.0 mg/kg/injection, schedule: Q01DX009 (ip), vehicle: saline with Tween-80.
[12] abbreviates: dose: 100.0 mg/kg/injection, schedule: Q01DX009 (ip), vehicle: saline with Tween-80.
[13] abbreviates: dose: 200.0 mg/kg/injection, schedule: Q01DX009 (ip), vehicle: saline with Tween-80.
Where [14] appears, read: dose: 400.0 mg/kg/injection, schedule: Q01DX009 (ip), vehicle: saline with Tween-80.
The mark [15] stands for this setting: dose: 100.0 mg/kg/injection, schedule: Q01DX009 (ip), vehicle: saline.

The list is a part of this screen's results and no random one: it gathers tests that were run many times, whatever their T/C, doses with no T/C, and many T/C values between a quarter and a half above the control. Further doses and runs are listed elsewhere. T/C: endpoint of the treated group in % of that of the vehicle group. Some entries give survivors of the animals treated and no T/C: the source files T/C as zero there, which appears to mark a toxic dose or a test without result, not a measured value. Some doses without a T/C left all or most animals alive at the check, yet need not have been tolerated: the source hardly ever lists a survival T/C far under the control, and the zero likely stands for such cases as well. Counts of survivors are from the toxicity check (mostly the fifth day) where no day follows; animals may have died later. Schedules are NCI's codes, taken here to give the interval after Q, in days (D) or hours (H), and the number of doses after X. Some entries hold several experiments; the values are given in rising order. For survival time, this PubChem deposit counts one and a half times the control or more as active, and values a quarter to a half above the control carry no call in these data; other NCI protocols may use other cut-offs. Some T/C values are followed by the survivors on the day toxicity was checked, most often the fifth; without a count, all were alive then.

With `CC(=O)[S][Pb]([c]1ccccc1)([c]1ccccc1)[c]1ccccc1`, the survivor count is 0 of 10 under setting [1]; 9 of 10 (dose: 4.0 mg/kg/injection, schedule: Q01DX009 (ip), vehicle: saline with Tween-80); 0 of 10 (dose: 5.9 mg/kg/injection, schedule: Q01DX009 (ip), vehicle: Klucel (hydroxypropylcellulose) (HPC)); 9 of 10 (dose: 5.9 mg/kg/injection, schedule: Q01DX009 (ip), vehicle: saline with Tween-80); 0 of 10 (dose: 9.0 mg/kg/injection, schedule: Q01DX009 (ip), vehicle: Klucel (hydroxypropylcellulose) (HPC)); 9 of 10 (dose: 9.0 mg/kg/injection, schedule: Q01DX009 (ip), vehicle: saline with Tween-80).
As to `CSc1cc(=O)n2c3ccccc3c3ccnc1c32`, the T/C (dose: 10.0 mg/kg/injection, schedule: Q01DX009 (ip), vehicle: saline with Tween-80) was 126 % of control [9 of 10 alive]. Also, the survivor count (dose: 20.0 mg/kg/injection, schedule: Q01DX009 (ip), vehicle: saline with Tween-80) was 7 of 10.
In the case of `COC(=O)[C@@H]1[C@H](O)[C@H](C)[C@H](O)[C@H](C)/C=C\C=C(C)C(=O)Nc2c(C)c(OC(C)=O)c3c(c2O)C(=O)C(C)=C2OCOC(=C23)C(C)=C[C@@](C)(O)[C@H](O)[C@@H](C)[C@H]1OC(C)=O`, under setting [2], the survivor count is 10 of 10.
In the case of `Nc1ccccc1SC1CC(=O)N(c2cccc3ccccc23)C1=O` (configuration not stated), the survivor count is recorded as 10 of 10 (dose: 1.56 mg/kg/injection, schedule: Q01DX009 (ip), vehicle: Klucel (hydroxypropylcellulose) (HPC)); 10 of 10 (dose: 3.12 mg/kg/injection, schedule: Q01DX009 (ip), vehicle: Klucel (hydroxypropylcellulose) (HPC)); 10 of 10 under setting [3]; 10 of 10 (dose: 50.0 mg/kg/injection, schedule: Q01DX009 (ip), vehicle: Klucel (hydroxypropylcellulose) (HPC)); 10 of 10 under setting [4]; 8 of 10 under setting [2].
As to `Nc1ccc2cc(S(=O)(=O)O)cc(O)c2c1N=Nc1ccc(F)cc1`, the survivor count was 6 of 10 under setting [5] and 2 of 10 under setting [6].
On to `CC(C)C(NC(=O)OC(C)(C)C)C(=O)O` (configuration not stated), for which, under setting [7], the survivor count is 10 of 10.
With `CC(=O)[O][Hg][c]1cc(-c2ccc(N=Nc3c(S(=O)(=O)O)cc4cccc(N)c4c3O)cc2)ccc1N=Nc1c(S(=O)(=O)O)cc2cccc(N)c2c1O`, the survivor count is recorded as 10 of 10 under setting [8] and 10 of 10 (dose: 6.0 mg/kg/injection, schedule: Q04DX003 (ip), vehicle: saline with Tween-80).
Take `O=C(CC1(Cl)C(F)(F)C(F)(F)C1(F)F)c1ccccc1`: the survivor count is, setting by setting: (dose: 6.0 mg/kg/injection, schedule: Q04DX003 (ip), vehicle: saline) 10 of 10; (dose: 6.25 mg/kg/injection, schedule: Q01DX009 (ip), vehicle: saline with Tween-80) 10 of 10; (dose: 9.0 mg/kg/injection, schedule: Q04DX003 (ip), vehicle: saline) 10 of 10; under setting [10], 10 of 10. For the same compound, the T/C is 141 % of control (dose: 6.25 mg/kg/injection, schedule: Q04DX003 (ip), vehicle: saline with Tween-80) and 128 % of control under setting [9].
As for `CC(C)NNC(=O)C(N)CO` (configuration not stated), the survivor count under setting [6] is 10 of 10.
On to `O=C(NCCN1CC1)C(=O)NCCN1CC1`, for which the T/C runs as follows: (dose: 0.75 mg/kg/injection, schedule: Q01DX009 (ip), vehicle: saline with Tween-80) 133 % of control; (dose: 1.56 mg/kg/injection, schedule: Q04DX003 (ip), vehicle: saline with Tween-80) 134 % of control. In addition, the survivor count under setting [8] is listed as 10 of 10; the survivor count (dose: 6.0 mg/kg/injection, schedule: Q01DX009 (ip), vehicle: saline with Tween-80) is given as 10 of 10; the survivor count (dose: 12.0 mg/kg/injection, schedule: Q01DX009 (ip), vehicle: saline with Tween-80) is 10 of 10; the survivor count under setting [9] is on record as 10 of 10; the survivor count (dose: 25.0 mg/kg/injection, schedule: Q04DX003 (ip), vehicle: saline with Tween-80) is reported as 8 of 10.
As to `Cc1cc(Cc2ccc(N=C=O)c(C)c2)ccc1N=C=O`, the survivor count runs as follows: under setting [10], 10 of 10; under setting [11], 10 of 10; under setting [12], 10 of 10; under setting [13], 10 of 10; under setting [14], 8 of 10.
As for `CC(=O)Nc1c(Cl)c(Cl)c2c(c1Cl)Cc1cc(Br)ccc1-2`, the survivor count by setting is: under setting [10], 6 of 6; under setting [11], 6 of 6.
Consider `COC(=O)C(Cl)(Cl)N=Nc1c(Cl)cc(Cl)c(C)c1Cl`, for which the survivor count under setting [14] is 7 of 10.
In the case of `CC(C)(C#N)N1CCCCC1`, the survivor count is 7 of 10 (dose: 5.0 mg/kg/injection, schedule: Q01DX009 (ip), vehicle: saline) and 6 of 10 (dose: 10.0 mg/kg/injection, schedule: Q01DX009 (ip), vehicle: saline).
With `Cc1cc([N+](=O)[O-])cc(C)c1OC(=O)c1ccc(N=C(N)N)cc1`, under setting [7], the survivor count is given as 1 of 10.
Consider `O=C1C=CC(=O)N1Cc1ccco1`, for which the T/C reads like this: (dose: 65.0 mg/kg/injection, schedule: Q01DX009 (ip), vehicle: saline) 126 % of control; under setting [15], 127 % of control.
In the case of `CN(C)CC/C=C1/c2ccccc2COc2ccccc21`, the survivor count under setting [15] is 3 of 10, the survivor count under setting [5] is 0 of 10 and the survivor count under setting [6] was 0 of 10.
`Cc1cc(Cl)ccc1NC(=O)CCl`: the survivor count under setting [14] is 8 of 10.
As for `CC/C(=C/C(F)(F)C(F)(F)C(F)(F)F)[N+](=O)[O-]`, the survivor count under setting [7] was 10 of 10.
On to `O=CNC(Cc1ccccc1)C(=O)O` (configuration not stated), for which the survivor count under setting [14] is on record as 10 of 10.
Take `COc1cccc2c1C(=O)c1c(O)c3c(c(O)c1C2=O)C[C@@](O)(C(C)=O)C[C@@H]3OC1CC(N(Cc2ccccc2)Cc2ccccc2)C(O)C(C)O1` (some centres not stated): the T/C by setting is: (dose: 25.0 mg/kg/injection, schedule: Q01DX001 (ip), vehicle: water) 130 % of control; (dose: 100.0 mg/kg/injection, schedule: Q01DX001 (ip), vehicle: water) 146 % of control. In addition, the survivor count is, setting by setting: (dose: 200.0 mg/kg/injection, schedule: Q01DX001 (ip), vehicle: water) 9 of 10 and 10 of 10; (dose: 400.0 mg/kg/injection, schedule: Q01DX001 (ip), vehicle: water) 7 of 10.
With `CCC[CH2][Sn]([Cl])([CH2]CCC)[S]C(=S)NCCNC(=S)[S][Sn]([Cl])([CH2]CCC)[CH2]CCC`, the survivor count under setting [3] is given as 2 of 10.
`CC[C@H]1CN2CCc3cc(OC)c(OC)cc3[C@@H]2C[C@@H]1C[C@H]1NCCc2c1[nH]c1ccc(O)cc21`: the T/C (dose: 2.0 mg/kg/injection, schedule: Q01DX009 (ip), vehicle: Klucel (hydroxypropylcellulose) (HPC)) was 133 % of control. For the same compound, the survivor count under setting [1] is reported as 10 of 10.
For the compound `CC(C)CN(CC(C)C)c1ccc([N+](=O)[O-])cc1[N+](=O)[O-]`, the survivor count is, setting by setting: under setting [11], 10 of 10; under setting [12], 10 of 10; under setting [13], 10 of 10.
For `O=C(Nc1ccccc1C(F)(F)F)C(c1ccccc1)c1ccccc1`, the survivor count is recorded as 10 of 10 under setting [7], 10 of 10 under setting [4] and 10 of 10 under setting [2].
`Cc1ccc(/C=N\N=C\c2ccc(C)cc2)cc1`: the survivor count under setting [13] was 10 of 10.
